Our source for the binding values is article PMC10734219.

By UniProt entry, the sequences of proteins in these tests, tags left out. Where a name states a change or a piece, a line headed by the entry shows the natural chain unless it says otherwise.
UniProt Q9X1L9: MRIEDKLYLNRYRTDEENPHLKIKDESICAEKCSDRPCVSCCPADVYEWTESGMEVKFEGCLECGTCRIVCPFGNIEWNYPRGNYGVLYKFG

Results are given in words; binding and its absence hold for the method and conditions named. Binding seen in cells or lysates may run through a third protein. Binding can be weak; no strength is given.

In the assay the target is Thermotoga maritima EtfA (Tm1530), N-terminal 9x His tag (Thermotoga maritima) (UniProt Q9X1L6). The assay can be described thus: co-purification (His-tag affinity chromatography, then gel filtration); subunits co-expressed from one operon in E. coli; captured by the N-terminal His9 tag of EtfA on HisTrap FF (50 mM phosphate pH 7.5, 500 mM NaCl, imidazole), then Superdex 200 in 25 mM HEPES pH 7.5, 200 mM NaCl …; fractions checked by SDS-PAGE, subunits verified by MS/MS. (In gel filtration, larger molecules generally elute earlier.)

Regarding “Thermotoga maritima EtfX (Tm1533) (from UniProt Q9X1L9)”, the binding entry is given as “binds”.
